According to publication PMC8668938:
These are yes or no findings as the source states them, for the method shown. Binding seen in cells or lysates may run through a third protein. Some results given as binding are weak or reduced against the parent protein; the word gives no strength.

Sequences of proteins named here, by UniProt entry; tags and fusion partners are left off. A change or cut given only in a name is not applied to a line headed by its entry. A line that says so, or that is headed by a name, gives the form on record, which may keep a tag or linker. Residues count along the entry.
UniProt Q14416: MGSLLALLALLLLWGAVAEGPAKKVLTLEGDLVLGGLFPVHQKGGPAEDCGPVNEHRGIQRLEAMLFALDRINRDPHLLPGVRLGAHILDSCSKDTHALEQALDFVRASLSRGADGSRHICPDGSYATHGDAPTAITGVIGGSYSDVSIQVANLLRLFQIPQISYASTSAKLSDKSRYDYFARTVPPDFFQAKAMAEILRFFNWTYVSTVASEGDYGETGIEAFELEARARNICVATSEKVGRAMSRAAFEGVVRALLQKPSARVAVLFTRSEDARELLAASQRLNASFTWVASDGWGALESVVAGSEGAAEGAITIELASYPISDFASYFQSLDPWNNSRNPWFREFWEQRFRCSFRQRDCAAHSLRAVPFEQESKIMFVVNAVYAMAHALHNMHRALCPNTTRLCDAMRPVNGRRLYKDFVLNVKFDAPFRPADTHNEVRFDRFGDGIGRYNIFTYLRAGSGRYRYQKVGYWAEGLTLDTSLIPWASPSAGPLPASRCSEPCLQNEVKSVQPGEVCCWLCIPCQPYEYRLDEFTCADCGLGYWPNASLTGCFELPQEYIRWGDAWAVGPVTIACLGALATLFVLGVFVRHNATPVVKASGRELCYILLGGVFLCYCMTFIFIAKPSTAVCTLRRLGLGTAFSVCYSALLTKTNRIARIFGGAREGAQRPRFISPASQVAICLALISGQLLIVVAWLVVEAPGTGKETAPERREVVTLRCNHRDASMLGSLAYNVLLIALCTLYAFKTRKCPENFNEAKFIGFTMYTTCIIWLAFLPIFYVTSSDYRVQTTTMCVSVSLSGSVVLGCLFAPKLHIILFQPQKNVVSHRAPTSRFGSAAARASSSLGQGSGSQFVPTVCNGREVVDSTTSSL
Flag-tagged metabotropic glutamate receptor subtype 2 (mGluR2-Flag): residues 19-872 of Q14416
N-terminal GST-tagged soluble ectodomain of mGluR2 (mGluR2-GST, aa 19-567): residues 19-567 of Q14416
UniProt P27487: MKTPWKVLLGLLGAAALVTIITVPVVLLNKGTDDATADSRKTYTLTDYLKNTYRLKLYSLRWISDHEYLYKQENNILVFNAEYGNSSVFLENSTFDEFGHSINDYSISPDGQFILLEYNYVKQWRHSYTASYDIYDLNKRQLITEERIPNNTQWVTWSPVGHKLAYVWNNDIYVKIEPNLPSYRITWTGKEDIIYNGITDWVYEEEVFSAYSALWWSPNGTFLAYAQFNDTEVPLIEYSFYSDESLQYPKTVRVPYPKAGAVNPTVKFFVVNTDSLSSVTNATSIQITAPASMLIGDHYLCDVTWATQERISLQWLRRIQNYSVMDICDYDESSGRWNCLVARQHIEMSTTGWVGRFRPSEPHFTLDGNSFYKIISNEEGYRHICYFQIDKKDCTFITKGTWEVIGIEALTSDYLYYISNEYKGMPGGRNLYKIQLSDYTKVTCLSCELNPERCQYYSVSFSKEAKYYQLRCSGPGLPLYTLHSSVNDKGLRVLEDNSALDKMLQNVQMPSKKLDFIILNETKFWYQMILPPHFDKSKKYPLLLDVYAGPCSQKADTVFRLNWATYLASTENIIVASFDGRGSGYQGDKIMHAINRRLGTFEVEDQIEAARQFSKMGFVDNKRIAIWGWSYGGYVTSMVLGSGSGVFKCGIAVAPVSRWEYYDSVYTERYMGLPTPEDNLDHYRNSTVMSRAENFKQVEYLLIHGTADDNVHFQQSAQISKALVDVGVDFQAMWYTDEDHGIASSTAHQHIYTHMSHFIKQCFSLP

Columns and labels:
[1] = target: Flag-tagged metabotropic glutamate receptor subtype 2 (mGluR2-Flag) (UniProt Q14416); test: co-IP
[2] = target: N-terminal GST-tagged soluble ectodomain of mGluR2 (mGluR2-GST, aa 19-567) (UniProt Q14416); test: pull-down; only the target purified

With “Myc-tagged SARS-CoV spike protein (SARS-CoV S-Myc) (from UniProt P59594)” the binding [1] was “binds”.
With “Myc-tagged human DPP4 (DPP4-Myc) (from UniProt P27487 1-766) (receptor)” the binding [1] was “binds” and the binding [2] was “binds”.
